The target of experiment [1] is endogenous HDAC7 of mouse cells (primary thymocytes; DO11.10-Empty cells) (mouse) (UniProt Q8C2B3). Nature of the experiment: immunoprecipitation with α-14-3-3ε from mouse primary thymocyte lysate, anti-HDAC7 Western blot. Background: Immunoblotting shows a protein as a band on a membrane.
For experiment [2] the target is unchanged. Nature of the experiment: co-immunoprecipitation, Western blot (mouse primary thymocytes).
Experiment [3] shares this target. Nature of the experiment: co-immunoprecipitation from mouse primary thymocyte lysate, anti-HDAC7 Western blot.
Experiment [4] deals with T1, FLAG-tagged human HDAC7 (human) (UniProt Q8WUI4).
T1 sequence (looked up): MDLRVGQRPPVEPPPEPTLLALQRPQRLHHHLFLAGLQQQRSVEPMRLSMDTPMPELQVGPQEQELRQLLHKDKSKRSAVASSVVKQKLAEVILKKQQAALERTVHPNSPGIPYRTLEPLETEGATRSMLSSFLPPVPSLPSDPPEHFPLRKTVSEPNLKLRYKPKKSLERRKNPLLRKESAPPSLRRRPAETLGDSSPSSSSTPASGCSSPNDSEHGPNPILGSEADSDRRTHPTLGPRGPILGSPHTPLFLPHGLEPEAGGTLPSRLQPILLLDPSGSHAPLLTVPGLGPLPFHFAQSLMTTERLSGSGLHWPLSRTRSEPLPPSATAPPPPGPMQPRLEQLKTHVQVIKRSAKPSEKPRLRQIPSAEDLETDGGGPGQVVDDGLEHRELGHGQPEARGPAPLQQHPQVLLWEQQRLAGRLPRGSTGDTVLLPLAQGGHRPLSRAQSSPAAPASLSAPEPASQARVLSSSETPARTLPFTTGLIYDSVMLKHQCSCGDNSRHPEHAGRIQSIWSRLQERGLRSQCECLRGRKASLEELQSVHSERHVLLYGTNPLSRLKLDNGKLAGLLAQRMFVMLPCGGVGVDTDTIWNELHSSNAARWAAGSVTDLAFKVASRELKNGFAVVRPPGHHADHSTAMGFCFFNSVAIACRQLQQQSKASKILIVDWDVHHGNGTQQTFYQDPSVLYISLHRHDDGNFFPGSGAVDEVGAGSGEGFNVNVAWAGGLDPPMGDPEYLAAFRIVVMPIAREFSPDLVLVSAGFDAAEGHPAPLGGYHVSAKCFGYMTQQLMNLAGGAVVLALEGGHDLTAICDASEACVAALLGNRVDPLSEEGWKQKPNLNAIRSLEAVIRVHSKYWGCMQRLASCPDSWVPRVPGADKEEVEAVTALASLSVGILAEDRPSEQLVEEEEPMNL
Nature of the experiment: co-immunoprecipitation, Western blot (DO11.10 T cell hybridoma).

Sequences of proteins named here, by UniProt entry; tags and fusion partners are left off. A change or cut given only in a name is not applied to a line headed by its entry.
UniProt Q8C2B3: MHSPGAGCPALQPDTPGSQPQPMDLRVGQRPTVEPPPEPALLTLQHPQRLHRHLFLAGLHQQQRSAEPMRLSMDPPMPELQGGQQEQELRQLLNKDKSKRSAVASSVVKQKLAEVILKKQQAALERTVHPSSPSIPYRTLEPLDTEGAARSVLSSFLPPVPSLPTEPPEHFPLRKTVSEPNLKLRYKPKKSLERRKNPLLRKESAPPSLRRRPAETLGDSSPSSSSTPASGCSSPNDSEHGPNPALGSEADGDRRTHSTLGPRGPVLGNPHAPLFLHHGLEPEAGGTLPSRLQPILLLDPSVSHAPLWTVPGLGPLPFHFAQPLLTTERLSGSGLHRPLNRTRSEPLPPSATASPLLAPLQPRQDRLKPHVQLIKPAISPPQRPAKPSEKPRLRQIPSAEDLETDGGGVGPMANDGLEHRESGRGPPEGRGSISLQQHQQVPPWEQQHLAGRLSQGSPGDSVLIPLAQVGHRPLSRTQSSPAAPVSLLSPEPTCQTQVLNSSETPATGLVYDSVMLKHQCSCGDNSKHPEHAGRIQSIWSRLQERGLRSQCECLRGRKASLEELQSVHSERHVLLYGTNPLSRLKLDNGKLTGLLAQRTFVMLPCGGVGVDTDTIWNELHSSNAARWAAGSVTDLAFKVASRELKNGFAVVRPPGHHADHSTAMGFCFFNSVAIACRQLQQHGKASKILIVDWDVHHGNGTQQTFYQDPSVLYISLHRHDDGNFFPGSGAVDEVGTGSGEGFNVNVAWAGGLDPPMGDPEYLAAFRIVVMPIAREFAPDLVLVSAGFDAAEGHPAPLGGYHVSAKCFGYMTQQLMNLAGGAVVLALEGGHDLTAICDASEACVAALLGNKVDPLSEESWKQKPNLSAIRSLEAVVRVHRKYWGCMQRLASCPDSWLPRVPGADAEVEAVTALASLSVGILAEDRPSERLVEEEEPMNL
UniProt P62259: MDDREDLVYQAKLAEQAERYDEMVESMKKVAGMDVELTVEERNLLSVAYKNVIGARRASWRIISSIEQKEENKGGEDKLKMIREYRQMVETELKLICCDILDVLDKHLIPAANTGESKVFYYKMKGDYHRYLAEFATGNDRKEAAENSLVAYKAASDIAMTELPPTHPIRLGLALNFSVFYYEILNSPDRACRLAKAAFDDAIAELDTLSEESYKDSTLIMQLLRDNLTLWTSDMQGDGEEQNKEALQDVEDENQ
UniProt P62141: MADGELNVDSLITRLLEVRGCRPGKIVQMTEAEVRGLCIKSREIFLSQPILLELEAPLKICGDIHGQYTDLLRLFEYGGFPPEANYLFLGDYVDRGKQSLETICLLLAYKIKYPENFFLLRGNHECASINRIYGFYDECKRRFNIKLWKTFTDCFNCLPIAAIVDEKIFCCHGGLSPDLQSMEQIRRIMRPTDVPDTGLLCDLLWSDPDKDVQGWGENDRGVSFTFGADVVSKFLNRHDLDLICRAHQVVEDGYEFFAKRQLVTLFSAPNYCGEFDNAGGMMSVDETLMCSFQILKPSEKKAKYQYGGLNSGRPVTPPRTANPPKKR

These are yes or no findings as the source states them, for the method shown. For some of these results: In cells and extracts the contact can be indirect. Some binding calls cover weakened binding; strength is not graded here. For some of these results: Tags and fused reporters may be left off the sequences shown.

As to “14-3-3 protein epsilon (from UniProt P62259 1-255)”, the binding entry in experiment [1] is “binds”.

With “myosin phosphatase (complex of PP1β and MYPT1) (from UniProt P62141 2-327; Q9DBR7 1-1029) (enzyme)”, the binding result in experiment [2], in experiment [3] and in experiment [4] was “binds” each time.

These data come from patent US20150024955A1, “Methods of Identifying Modulators of Dephosphorylation of Histone Deacetylase” (THE J. DAVID GLADSTONE INSTITUTES, priority 2006, published 2015).
